Where a chain is given by its changes, count along the chain named. Names and notes keep the numbering of the source. These are yes or no findings as the source states them, for the method shown. For part of these data: In cells and extracts the contact can be indirect. Some results given as binding are weak or reduced against the parent protein; the word gives no strength. Sequences can lack the tags named with a protein. Values belong to the binder of their own block, whether it stands above or below them.
Key:
[1] = molecular target: T1, N-terminally FLAG tagged Tgl2 (S. cerevisiae, UniProt P54857 1-326); experiment: co-IP
T1 sequence (looked up): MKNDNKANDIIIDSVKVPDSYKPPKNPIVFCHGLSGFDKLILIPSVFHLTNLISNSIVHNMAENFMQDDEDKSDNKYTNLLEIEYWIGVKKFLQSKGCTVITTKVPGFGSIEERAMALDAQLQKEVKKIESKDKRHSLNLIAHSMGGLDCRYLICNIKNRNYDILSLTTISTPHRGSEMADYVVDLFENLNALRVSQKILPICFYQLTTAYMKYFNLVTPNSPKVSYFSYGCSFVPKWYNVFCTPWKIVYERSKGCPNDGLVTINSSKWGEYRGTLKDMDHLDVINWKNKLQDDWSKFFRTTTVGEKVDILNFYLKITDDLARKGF

[2] = molecular target: N-terminally HA tagged Tgl2 (S. cerevisiae) (UniProt P54857); experiment: native gel or EMSA
[3] = molecular target: HA-Tgl2 C256A (S. cerevisiae) (UniProt P54857); experiment: native gel or EMSA
[4] = molecular target: HA-Tgl2 C256A (S. cerevisiae) (UniProt P54857); experiment: non-reducing SDS-PAGE with immunodecoration
[5] = molecular target: HA-Tgl2 C232A (S. cerevisiae) (UniProt P54857); experiment: native gel or EMSA
[6] = molecular target: HA-Tgl2 C232A (S. cerevisiae) (UniProt P54857); experiment: non-reducing SDS-PAGE with immunodecoration
[7] = molecular target: HA-Tgl2 S144A (S. cerevisiae) (UniProt P54857); experiment: native gel or EMSA
[8] = molecular target: HA-Tgl2 S144A (S. cerevisiae) (UniProt P54857); experiment: non-reducing SDS-PAGE with immunodecoration
[9] = molecular target: HA-Tgl2 C31A (S. cerevisiae) (UniProt P54857); experiment: native gel or EMSA
[10] = molecular target: HA-Tgl2 C31A (S. cerevisiae) (UniProt P54857); experiment: non-reducing SDS-PAGE with immunodecoration
[11] = molecular target: C-terminally tagged Tgl2 (S. cerevisiae) (UniProt P54857); experiment: native gel or EMSA
[12] = molecular target: HA-Tgl2 D259A (S. cerevisiae) (UniProt P54857); experiment: native gel or EMSA

- binding [1]: binds
- binding [2]: binds
B1: N-terminally HA tagged Tgl2 (natural protein, S. cerevisiae, UniProt P54857 1-326, looked up)
chain: T1 sequence (looked up)

- binding [3]: binds
- binding [4]: binds
B2: HA-Tgl2 C256A (protein, UniProt P54857 1-326)
chain: T1 sequence (looked up) with C256A

- binding [5]: binds
- binding [6]: binds
B3: HA-Tgl2 C232A (protein, UniProt P54857 1-326)
chain: T1 sequence (looked up) with C232A

- binding [7]: binds
- binding [8]: binds
B4: HA-Tgl2 S144A (protein, UniProt P54857 1-326)
chain: T1 sequence (looked up) with S144A

- binding [9]: binds
- binding [10]: binds
B5: HA-Tgl2 C31A (protein, UniProt P54857 1-326)
chain: T1 sequence (looked up) with C31A

- binding [11]: binds
B6: C-terminally tagged Tgl2 (protein, UniProt P54857 1-326)
chain: T1 sequence (looked up)

- binding [12]: binds
B7: HA-Tgl2 D259A (protein, UniProt P54857 1-326)
chain: T1 sequence (looked up) with D259A

From paper doi:10.1101/2024.05.08.593122 (bioRxiv, 2024)
